Fewer than 10 of roughly 1,200 compounds were called active. Calls follow the shape of the dose curve; as a rule, active = well fitted curve in the direction sought with a large enough effect; inconclusive = small, poorly fitted or top-dose-only effect, or another doubt; inactive = no such curve, though single readings can be large or run the other way. This is one part of the list.
Target: Transcriptional regulator ERG (Homo sapiens) (UniProt P11308)
Experiment: qHTS for Small Molecule Inhibitors of the ERG Ets/DNA interaction: TR assay against cherry picks; also: % of control where 0% means no effect
Conditions: ERG Ets domain-DNA fluorescence polarization, Texas red probe; at 154 µM (top of the series)
How it was run: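 Polarization read sequentially for fluorescein (ex 480/em 535 nm) and Texas red (ex 555/em 632 nm) probes, 5 nM and 100 nM solutions, displaced from His-ERG Ets domain (1 uM solution), pH 7.5 Tris/KCl/EDTA/DTT buffer.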

By UniProt entry, the sequences of proteins in these tests, tags left out. Where a name states a change or a piece, a line headed by the entry shows the natural chain unless it says otherwise.
UniProt P11308: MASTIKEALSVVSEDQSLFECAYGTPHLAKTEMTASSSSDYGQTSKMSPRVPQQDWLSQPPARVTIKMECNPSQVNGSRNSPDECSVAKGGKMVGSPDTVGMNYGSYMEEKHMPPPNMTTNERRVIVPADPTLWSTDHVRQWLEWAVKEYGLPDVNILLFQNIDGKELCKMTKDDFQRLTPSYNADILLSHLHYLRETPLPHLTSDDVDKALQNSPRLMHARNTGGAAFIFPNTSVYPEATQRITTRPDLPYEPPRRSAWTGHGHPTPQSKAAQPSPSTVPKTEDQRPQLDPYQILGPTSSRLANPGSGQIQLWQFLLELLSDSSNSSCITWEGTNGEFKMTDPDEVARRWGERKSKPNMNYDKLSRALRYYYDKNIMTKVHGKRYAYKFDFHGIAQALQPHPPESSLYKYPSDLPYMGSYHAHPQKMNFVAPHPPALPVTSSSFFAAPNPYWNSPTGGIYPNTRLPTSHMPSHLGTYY

Activity change, negative = inhibition, inactive:
CCOC(=O)c1ccccc1NC(=O)COC(=O)C(Cc1c[nH]c2ccccc12)NC(C)=O (stereo not given) -11%
Nc1nc(N2CCN(Cc3ccccc3)CC2)n[nH]1 -12.8%
CCCn1c(=N)n(CC(=O)c2ccc([N+](=O)[O-])cc2)c2ccccc21 -7.8%
CSc1nc(-c2ccc(Cl)cc2)nn1C(=O)c1ccccc1 0%
CCN(CC)c1cccc(OC2=NS(=O)(=O)c3ccccc32)c1 6.44%
COc1ccc(NC(=O)CSc2cccc3cccnc23)c(OC)c1 0.653%
COc1cc2nc(N3CCN(C(=O)[C@@H]4CCCO4)CC3)nc(N)c2cc1OC -17.2%
COc1ccc(N/C=C(\C(C)=O)c2ccc(OC)c(OC)c2)cc1OC 1.84%
COc1ccc(C(=O)N2CCCC(CCC(=O)NCc3ccccc3F)C2)c(OC)n1 (stereo not given) 0.16%
Cc1ccc(C(=O)N2CCCCC2C(=O)O)cc1S(=O)(=O)N1CCCCC1 (stereo not given) -2.45%
NC(=O)c1ccccc1NCC(=O)c1ccc(F)cc1 3.24%
COC(=O)/C(=C/Nc1ccc(O)cc1)[N+](=O)[O-] 13.2%
Cc1ccc(N(CCCCN2C(=O)c3ccccc3C2=O)C(=O)c2ccc(Cl)s2)cc1 4.74%
Cc1ccccc1OCC(=O)OCC(=O)NCCc1ccccc1 -4.25%
CCN1CCN(C(=O)C(=O)c2cn(CC(=O)N3CCCCCC3)c3ccccc23)CC1 12.4%
CCCc1nc2oc3c(OC)ncnc3c2c2c1COC(C)(C)C2 -20.4%
O=C(NCC1CCN(S(=O)(=O)c2ccccc2)CC1)Nc1ccc(F)cc1 1.59%
CC1(C)C[C@@H]1C(=O)N/C(=C\CCCCSC[C@H](N)C(=O)O)C(=O)O 3.22%
Nc1ccc(C(=O)O)cc1 5.57%
COc1ccc(N=c2scc(C)n2CCCN2CCCC2=O)cc1 -8.6%
O=C(CN1C=NS(=O)(=O)c2ccccc21)Nc1ccc(Br)cc1 -7.5%
Nc1cc(C(=O)OCC(=O)NCCCc2ccccc2)ccc1Cl -6.58%
CN(C)S(=O)(=O)c1ccc(C(=O)N(c2ccccn2)c2ccccn2)cc1 1.38%
CCN(CC(=O)Nc1ccccc1C(F)(F)F)C(=O)c1ccc(N2C(=O)CCC2=O)cc1 4.04%
Cn1cc2c(=O)n(/N=C/c3ccccc3)cnc2n1 4.94%
O=C(Nc1ccc(-n2cnnn2)cc1)C1CCCCC1 -1.29%
CC1(C)C=C2C(=NN(c3ccccc3)C(N)=C2C#N)CO1 -5.68%
COc1c2c(c(CCC(=O)O)c3c1C=CC(C)(C)O3)OC(C)(C)C=C2 0.0019%
Cc1ccc(C(=C2C3C=CC2C2C(=O)NC(=O)C32)c2ccc(C)cc2)cc1 (stereo not given) -2.25%
COc1cc(SC)ccc1C(=O)NC(C)C 2.03%
CCCC(=O)Nc1nc2c(C)c(Cl)ccc2s1 0.396%
NS(=O)(=O)c1ccc(NC(=O)/C(=C/c2ccncc2)NC(=O)c2ccccc2)cc1 3.48%
O=S(=O)(c1ccccc1)N1CCN(c2ncnc3scc(-c4ccccc4)c23)CC1 2.44%
O=C(NC1CCN(S(=O)(=O)c2ccccc2C(F)(F)F)CC1)c1ccco1 -11.1%
CCOCC(=O)N1CCC(Cc2ccccc2)CC1 -6.54%
CC1(C)CC(=O)C2=C(C1)Nc1ccccc1NC2c1cccs1 (stereo not given) 19.5%
CCOC(=O)C1=C(C)c2ccccc2N(S(=O)(=O)C(F)(F)F)C1C(=O)OCC (stereo not given) -17.1%
COc1cccc(OC)c1C(=O)Nn1c(-c2cccs2)nc2ccccc2c1=O 1.79%
O=C(Nc1ccccc1-c1ccccc1)C1CCCCC1 9%
O=C(Nc1ccc(F)cc1F)NC1CC1 23%
O=C(CCCN1C(=O)/C(=C\c2cccs2)SC1=S)Nc1cccc(C(=O)O)c1 -12.4%
O=C(Nc1ccc(N2CCOCC2)cc1)c1ccc2nc(-c3ccco3)c(-c3ccco3)nc2c1 -17%
Nc1nnc(-c2ccccc2F)s1 1.46%
Cc1cccc(C(=O)Nc2ccc(C(=O)N3CCCCC3C)cc2)c1 (stereo not given) -0.764%
CCOC(=O)C(NC(=O)CC(C)C)(Nc1sc2c(c1C(N)=O)CCCC2)C(F)(F)F (stereo not given) 1.6%
Cc1[nH]c2ccc(F)cc2c1CCNC(=O)C1CCCCC1C(=O)OCC(F)(F)F (stereo not given) 4.99%
O=C(COC(=O)/C=C/c1ccc([N+](=O)[O-])cc1)NCc1cccs1 5.97%
COc1ccc(C2CC(=O)C(C=NCCN3CCN(C(=S)Nc4ccccc4)CC3)=C(O)C2)cc1 (stereo not given) -3.46%
COc1ccc(CC(=O)OCC(=O)Nc2cccnc2Cl)cc1OC 4.98%
Cc1ccc(/C=C2\SC(N3CCCCC3)=NC2=O)cc1 -1.4%
COc1ccc(-n2cnc3cc(C(=O)NC4CCCC4)ccc32)cc1 6.09%
Cc1ccc2oc(-c3ccc(NC(=O)CC(C)C)cc3)nc2c1 -3.59%
CCCCOc1ccc(C(=O)NCCC(=O)NCCCC(=O)OCC)cc1 -1.46%
Cc1ccc(N(CC(=O)NCc2ccccc2)C(=O)CCC(=O)Nc2nccs2)cc1 -7.85%
Cc1ccc(NC(=O)CSc2nc3ccccc3c3nc(CCn4c(C)nc5ccccc54)nn23)cc1F -12%
COC(=O)CSc1nnc(CNC(=O)c2ccc(S(=O)(=O)N3CCOCC3)cc2)n1C 0.773%
Cc1ccc(CNC(=O)N[C@@H](Cc2ccccc2)C(=O)O)cc1 -1.01%
CN1CCC2(CC1)C1CN(C)CC=C1C(C#N)=C(N)C2(C#N)C#N (stereo not given) 1.38%
CCOC(=O)C1CN(S(=O)(=O)c2cc(OC)ccc2OC)C1 -3.41%
CN(C)c1ccc2c3c(ccc(N(C)C)c13)C(=O)OC2 3.2%

Grouped by structure, those above containing a cyano group (two)
Activity change, negative = inhibition, inactive:
CC1(C)C=C2C(=NN(c3ccccc3)C(N)=C2C#N)CO1 -5.68%
CN1CCC2(CC1)C1CN(C)CC=C1C(C#N)=C(N)C2(C#N)C#N (stereo not given) 1.38%

— PubChem BioAssay AID651803 (National Center for Advancing Translational Sciences (NCATS), 2012)
